Measured values as given in patent publication US20120277719A1, “COATING COMPOSITIONS, METHODS AND COATED DEVICES” (MASSACHUSETTS INSTITUTE OF TECHNOLOGY, priority 2011, published 2012).
Values after ≈ are worked out from the molar mass of the structure shown.

System: S. aureus 25923
Assay: S. aureus growth inhibition by dilutions of film release solutions (optical density at 600 nm)
Format: cell-based
Conditions: Staphylococcus aureus, 16-18 hours, 37 C, 10^5 CFU/mL, read-out: MIC against S. aureus
Procedure: A quantitative determination of vancomycin activity from a coated gelatin sponge sample was obtained by first completely releasing the coated sponge into a 1 mL, 0.01 M PBS bath, at 37° C. The exact concentration of vancomycin in this release solution was determined using HPLC methods described earlier. Subsequently, S. aureus in its exponential growth phase was added to dilutions of this release solution in CaMHB at a final concentration of 10^5 CFU/mL. Non-film released vancomycin was also tested. Additionally, controls of 0.01 M PBS dilutions in media containing no drug exposed to S. aureus (positive control) and not exposed to S. aureus (negative control) were included. These dilutions were incubated at 37° C. for 16-18 hours with agitation, following which, optical density at 600 nm was read using a BioTek PowerWave XS plate reader. Normalized bacteria density was calculated as follows: […]

`CN[C@H](CC(C)C)C(=O)N[C@H]1C(=O)N[C@@H](CC(N)=O)C(=O)N[C@H]2C(=O)N[C@H]3C(=O)N[C@H](C(=O)N[C@H](C(=O)O)c4cc(O)cc(O)c4-c4cc3ccc4O)[C@H](O)c3ccc(c(Cl)c3)Oc3cc2cc(c3O[C@@H]2O[C@H](CO)[C@@H](O)[C@H](O)[C@H]2O[C@H]2C[C@](C)(N)[C@H](O)[C@H](C)O2)Oc2ccc(cc2Cl)[C@H]1O` [vancomycin] gave an MIC of 0.5 to 2 µg/mL (≈ 0.345 to 1.38 µM).
